According to patent US20060252048A1, “Method for testing ghrelin release” (priority 2003, published 2006):
For at least one compound, name, drawing or mass did not settle the structure.

System: RF-48 cells
Assay: ghrelin release from RF-48 cells measured by enzyme immunoassay
Type: cell-based, human
Settings: 1 hour incubation with test compound, supernatant measured with EIA kit, compared with control and control+vehicle (FIG. 1)
Experimental: These test compounds were made as 100× stock solutions by dissolving them in pure ethanol, as a vehicle. The test compounds were then diluted 1/100 in the Leibovitz L-15 medium containing 0.5% foetal bovine serum (FBS).
Since the effect caused by these test compounds on ghrelin release by a RF-48 cell line was tested, RF-48 cells were grown during incubation at 37° C. in Leibovitz's L15 medium with 2 mM L-glutamine and containing 10% (vol/vol) FBS in the absence of CO2.
After cell confluence was obtained, the cells were plated in 24-well cultures plates (1×10^5 cells/well). Several wells were subsequently exposed to one of the test compounds as prepared above. For each type and concentration of test compound tested, a series of three tests was carried out.
After 1 hour of incubation of the thus-filled wells containing both the cells and the test compound at the same conditions as those applied during growing of the RF-48 cells, a sample was taken from each well to measure ghrelin release.
Each sample was centrifuged at 3000 rpm to remove the cells from the sample and the supernatant (containing the ghrelin formed as well as the medium and the test compound) was transferred to a separate tube. The ghrelin release was measured using a commercial enzyme immunoassay kit (from Phoenix Pharmaceuticals, Belmont, Calif., USA). […]

## CSCCC(NC(=O)C(Cc1c[nH]c2ccccc12)NC(=O)CNC(=O)C(Cc1ccc(O)cc1)NC(=O)C(C)NC(=O)C(CCC(=O)O)NC(=O)C(CCC(=O)O)NC(=O)C(CCC(=O)O)NC(=O)[C@H](CCC(=O)O)NC(=O)[C@H](CCC(=O)O)NC(=O)[C@H](CC(C)C)NC(=O)[C@H](Cc1c[nH]c2ccccc12)NC(=O)[C@@H]1CCCN1C(=O)CNC(=O)[C@@H](N)CCC(=O)O)C(=O)NC(CC(=O)O)C(=O)NC(Cc1ccccc1)C(N)=O (stereo in doubt) [Gastrin, Gastrin I human]
  ghrelin release: stimulate the release of ghrelin
